This note sets out measurements from PubChem BioAssay AID250 (DTP/NCI, 2004).

The list does not hold the whole screen: it is rich in T/C values a quarter to a half above the control, in often repeated tests (any T/C) and in doses without a T/C. Further doses and runs are listed elsewhere. T/C: endpoint of the treated group in % of that of the vehicle group. Some entries give survivors of the animals treated and no T/C: the source files T/C as zero there, which appears to mark a toxic dose or a test without result, not a measured value. Some survivor counts are full or nearly so, which does not show that the dose was tolerated: the source hardly ever lists a survival T/C far under the control, and the zero likely stands for such cases as well. Survivors were counted at the toxicity check, usually on the fifth day, unless a day is given; later deaths do not show. Schedules are NCI's codes, taken here to give the interval after Q, in days (D) or hours (H), and the number of doses after X. Some structures stand for samples that the source files as different forms (salt, stereo form or complex); doses refer to the form tested. Marks such as (2×) stand for listed records that agree. Some schedule codes hold Z or #, which are not explained here. Where survival is the endpoint, the PubChem record calls one and a half times the control and up active, and a quarter to a half above the control has no call in these data; cut-offs in other NCI protocols can differ. Some doses were run more than once; the values are given in rising order.

The test has as its system BDF1 mice, L1210 leukemia sc, survival T/C. In words: NCI In Vivo Anticancer Drug Screen. Data for tumor model L1210 Leukemia (subcutaneous) in B6D2F1 (BDF1) mice. Particulars: higher T/C = longer survival. How it is done: The antitumor activity of compounds was measured in mice bearing transplantable tumors. Survival or tumor size were measured and the results are expressed as the measurement made in the treated group (T) divided by the measurement made in the vehicle treated control group (C). The tumor model used in this assay is L1210 Leukemia (subcutaneous) in B6D2F1 (BDF1) mice

Where [1] appears, read: T/C endpoint: median survival time, dose: 1.8 mg/kg/injection, schedule: Q01DX Z (sc), vehicle: methylcellulose (MC).
Where [2] appears, read: T/C endpoint: median survival time, dose: 3.0 mg/kg/injection, schedule: Q01DX Z (sc), vehicle: methylcellulose (MC).
[3] abbreviates: T/C endpoint: median survival time, dose: 5.0 mg/kg/injection, schedule: Q01DX Z (sc), vehicle: methylcellulose (MC).
Setting [4] is: T/C endpoint: median survival time, dose: 8.4 mg/kg/injection, schedule: Q01DX Z (sc), vehicle: methylcellulose (MC).
Where [5] appears, read: T/C endpoint: median survival time, dose: 14.0 mg/kg/injection, schedule: Q01DX Z (sc), vehicle: methylcellulose (MC).
[6] abbreviates: T/C endpoint: median survival time, dose: 23.0 mg/kg/injection, schedule: Q01DX Z (sc), vehicle: methylcellulose (MC).
Setting [7] is: T/C endpoint: median survival time, dose: 39.0 mg/kg/injection, schedule: Q01DX Z (sc), vehicle: methylcellulose (MC).
Where [8] appears, read: T/C endpoint: median survival time, dose: 65.0 mg/kg/injection, schedule: Q01DX Z (sc), vehicle: methylcellulose (MC).
Setting [9] is: T/C endpoint: median survival time, dose: 108.0 mg/kg/injection, schedule: Q01DX Z (sc), vehicle: methylcellulose (MC).
Setting [10] is: T/C endpoint: median survival time, dose: 180.0 mg/kg/injection, schedule: Q01DX Z (sc), vehicle: methylcellulose (MC).
[11] abbreviates: T/C endpoint: median survival time, dose: 300.0 mg/kg/injection, schedule: Q01DX Z (sc), vehicle: methylcellulose (MC).
Setting [12] is: T/C endpoint: median survival time, dose: 60.0 mg/kg/injection, schedule: Q01DX Z (sc), vehicle: saline.
The mark [13] stands for this setting: T/C endpoint: median survival time, dose: 100.0 mg/kg/injection, schedule: Q01DX Z (sc), vehicle: saline.
Setting [14] is: T/C endpoint: mean survival time, dose: 10.0 mg/kg/injection, schedule: Q01DX009 (ip), vehicle: saline.
Setting [15] is: T/C endpoint: mean survival time, dose: 20.0 mg/kg/injection, schedule: Q01DX009 (ip), vehicle: saline.
Where [16] appears, read: T/C endpoint: median survival time, dose: 65.0 mg/kg/injection, schedule: Q01DX Z (sc), vehicle: water.
Setting [17] is: T/C endpoint: median survival time, dose: 108.0 mg/kg/injection, schedule: Q01DX Z (sc), vehicle: water.
Where [18] appears, read: T/C endpoint: median survival time, dose: 180.0 mg/kg/injection, schedule: Q01DX Z (sc), vehicle: water.
The mark [19] stands for this setting: T/C endpoint: median survival time, dose: 500.0 mg/kg/injection, schedule: Q01DX Z (sc), vehicle: water.

As for `O=C(c1ccc(C(=O)N2CC2)cc1)N1CC1`, the survivor count by setting is: under setting [1], 4 of 10; under setting [2], 4 of 10; under setting [3], 5 of 10; under setting [4], 3 of 10; under setting [5], 5 of 10; under setting [6], 4 of 10. The survivor count under setting [7] is listed as 2 of 10.

Turning to `O=C(O)CCCc1ccc(N(CCCl)CCCl)cc1`, the survivor count reads like this: under setting [8], 2 of 10; under setting [9], 0 of 10; under setting [10], 0 of 10; under setting [11], 0 of 10.

Consider `COc1cc([C@@H]2c3cc4c(cc3[C@H](O)[C@H]3COC(=O)[C@H]23)OCO4)cc(OC)c1OC`, for which the survivor count is on record as 6 of 10 under setting [7], 3 of 10 under setting [8], 0 of 10 under setting [9] and 0 of 10 under setting [10].

Regarding `O=C(NO)c1ccncc1`, the survivor count runs as follows: (T/C endpoint: median survival time, dose: 400.0 mg/kg/injection, schedule: Q01DX009 (ip), vehicle: water) 9 of 10; (T/C endpoint: median survival time, dose: 600.0 mg/kg/injection, schedule: Q01DX009 (ip), vehicle: water) 1 of 10; (T/C endpoint: median survival time, dose: 800.0 mg/kg/injection, schedule: Q01DX009 (ip), vehicle: water) 0 of 10.

With `O=S1OCCS1` (stereo not drawn), the survivor count is 4 of 10 under setting [12] and 0 of 10 under setting [13].

In the case of `CCCCCCC(=O)O[C@H]1CC[C@H]2[C@@H]3CCC4=CC(=O)CC[C@]4(C)[C@H]3CC[C@]12C`, the T/C (T/C endpoint: median survival time, dose: 80.0 mg/kg/injection, schedule: Q01DX009 (sc), vehicle: other) is given as 95, 100, 102, 105 % of control and the T/C (T/C endpoint: median survival time, dose: 160.0 mg/kg/injection, schedule: Q01DX009 (sc), vehicle: other) is 100 (2×), 101, 102 % of control. In addition, the survivor count by setting is: (T/C endpoint: median survival time, dose: 320.0 mg/kg/injection, schedule: Q01DX009 (ip), vehicle: other) 10 of 10; (T/C endpoint: median survival time, dose: 640.0 mg/kg/injection, schedule: Q01DX009 (ip), vehicle: other) 3 of 10.

With `COc1cc(NS(C)(=O)=O)ccc1Nc1c2ccccc2nc2ccccc12`, the survivor count by setting is: under setting [14], 8 of 10; under setting [15], 10 of 10; (T/C endpoint: median survival time, dose: 8.0 mg/kg/injection, schedule: Q01DX009 (ip), vehicle: other) 6 of 10.

Consider `O=S(=O)(c1ccc(O)cc1)c1ccc(O)cc1`, for which the survivor count is 6 of 10 under setting [5]; 5 of 10 under setting [6]; 6 of 10 under setting [7]; 6 of 10 under setting [8]; 4 of 10 under setting [9]; 6 of 10 under setting [10]. Moreover, under setting [11], the survivor count is recorded as 3 of 10.

As for `OCC1OC(n2cnc3cc(Cl)c(Cl)cc32)C(O)C1O` (stereo not drawn), under “T/C endpoint: median survival time, dose: 840.0 mg/kg/injection, schedule: Q01DX Z (sc), vehicle: methylcellulose (MC)”, the survivor count is on record as 6 of 10.

Turning to `CN(C)c1ccc(/C=C/c2cc[n+](C)c3ccccc23)cc1`, the survivor count under setting [3] is 0 of 10.

As for `NN=C(N)N`, the survivor count is reported as 3 of 10 (T/C endpoint: median survival time, dose: 23.0 mg/kg/injection, schedule: Q01DX Z (sc), vehicle: water); 3 of 10 (T/C endpoint: median survival time, dose: 39.0 mg/kg/injection, schedule: Q01DX Z (sc), vehicle: water); 5 of 10 under setting [16]; 3 of 10 under setting [17]; 3 of 10 under setting [18]; 3 of 10 (T/C endpoint: median survival time, dose: 300.0 mg/kg/injection, schedule: Q01DX Z (sc), vehicle: water). Also, the survivor count under setting [19] is given as 4 of 10 and the survivor count (T/C endpoint: median survival time, dose: 833.0 mg/kg/injection, schedule: Q01DX Z (sc), vehicle: water) was 4 of 10.

As to `O=C(O)CS`, the survivor count reads like this: under setting [10], 2 of 10; under setting [11], 0 of 10.

Take `CCN(CC)CCCC(C)Nc1c2ccc(Cl)cc2nc2ccc(OC)cc12` (stereo not drawn): the survivor count under setting [19] is 1 of 10.

As for `O=c1[nH]c(=S)c2[nH]c(=O)[nH]c2[nH]1`, the survivor count was 6 of 10 (T/C endpoint: median survival time, dose: 1.08 mg/kg/injection, schedule: Q01DX Z (sc), vehicle: methylcellulose (MC)); 6 of 10 under setting [1]; 4 of 10 under setting [4].

`CC(=O)Nc1ccc2nc3ccc(NC(C)=O)cc3[n+](-c3ccccc3)c2c1`: the survivor count was 2 of 8 under setting [2]; 3 of 8 under setting [3]; 5 of 8 under setting [4]; 5 of 8 under setting [5]; 5 of 8 under setting [7]; 3 of 8 under setting [9].

As to `CN(C)c1ccc(/C=C/c2ccc3ccccc3[n+]2C)cc1`, the survivor count by setting is: under setting [4], 3 of 10; under setting [5], 4 of 10.

Regarding `COc1cc(NS(C)(=O)=O)ccc1Nc1c2ccccc2nc2c(C)cccc12`, the survivor count is 10 of 10 under setting [14] and 10 of 10 (2×) under setting [15].

As for `CS(=O)(=O)Nc1ccc(Nc2c3ccccc3nc3cc(N)ccc23)cc1`, the survivor count is 8 of 10 (T/C endpoint: mean survival time, dose: 4.0 mg/kg/injection, schedule: Q01DX009 (ip), vehicle: saline) and 8 of 10 (T/C endpoint: mean survival time, dose: 8.0 mg/kg/injection, schedule: Q01DX009 (ip), vehicle: saline).

For `C[C@]12C=CC(=O)C=C1CC[C@@H]1[C@@H]2CC[C@]2(C)OC(=O)CC[C@@H]12`, the survivor count under setting [9] was 6 of 10.

For `[I][Hg][CH2]C1COC([CH2][Hg][I])CO1` (stereo not drawn), the survivor count (T/C endpoint: median survival time, dose: 180.0 mg/kg/injection, schedule: Q01DX Z (sc), vehicle: other) is reported as 1 of 10.

With `O=C(Nc1ccc(C2=NCCN2)cc1)c1ccc(C(=O)Nc2ccc(C3=NCCN3)cc2)cc1`, the survivor count runs as follows: (T/C endpoint: median survival time, dose: 8.4 mg/kg/injection, schedule: Q01DX Z (sc), vehicle: saline) 4 of 10; (T/C endpoint: median survival time, dose: 14.0 mg/kg/injection, schedule: Q01DX Z (sc), vehicle: saline) 4 of 10; (T/C endpoint: median survival time, dose: 39.0 mg/kg/injection, schedule: Q01DX Z (sc), vehicle: saline) 5 of 10; under setting [16], 6 of 10; under setting [17], 4 of 10; under setting [18], 6 of 10. Moreover, the survivor count under setting [19] is listed as 6 of 10.

For the molecule `CO[C@H](C(=O)[C@@H](O)[C@@H](C)O)[C@@H]1Cc2cc3cc(OC4CC(OC5CC(O)C(O)C(C)O5)C(O)C(C)O4)c(C)c(O)c3c(O)c2C(=O)[C@H]1OC1CC(OC2CC(OC3CC(C)(O)C(O)C(C)O3)C(O)C(C)O2)C(O)C(C)O1` (stereo partly drawn), the survivor count (T/C endpoint: median survival time, dose: 0.5 mg/kg/injection, schedule: Q01DX009 (ip), vehicle: water) was 6 of 10; the survivor count (T/C endpoint: median survival time, dose: 1.0 mg/kg/injection, schedule: Q01DX009 (sc), vehicle: water) is given as 6 of 10; the survivor count (T/C endpoint: median survival time, dose: 2.0 mg/kg/injection, schedule: Q01DX009 (ip), vehicle: water) is listed as 0 of 10.

Take `O=C(CCN1CC1)OCCOC(=O)CCN1CC1`: the survivor count is 5 of 10 (T/C endpoint: median survival time, dose: 2.8 mg/kg/injection, schedule: Q01DX Z (sc), vehicle: saline); 1 of 10 (T/C endpoint: median survival time, dose: 36.0 mg/kg/injection, schedule: Q01DX Z (sc), vehicle: saline); 0 of 10 under setting [12]; 0 of 10 under setting [13].
